According to ChEMBL document CHEMBL5674883, “The Heterochromatin Landscape in Migrating Cells and the Importance of H3K27me3 for Associated Transcriptome Alterations” (Cells, 2018):
This continues a long series; more values of the same kind are listed elsewhere.

Chains of the proteins cited; added tags and fusions are not shown.
UniProt Q61188, whole entry: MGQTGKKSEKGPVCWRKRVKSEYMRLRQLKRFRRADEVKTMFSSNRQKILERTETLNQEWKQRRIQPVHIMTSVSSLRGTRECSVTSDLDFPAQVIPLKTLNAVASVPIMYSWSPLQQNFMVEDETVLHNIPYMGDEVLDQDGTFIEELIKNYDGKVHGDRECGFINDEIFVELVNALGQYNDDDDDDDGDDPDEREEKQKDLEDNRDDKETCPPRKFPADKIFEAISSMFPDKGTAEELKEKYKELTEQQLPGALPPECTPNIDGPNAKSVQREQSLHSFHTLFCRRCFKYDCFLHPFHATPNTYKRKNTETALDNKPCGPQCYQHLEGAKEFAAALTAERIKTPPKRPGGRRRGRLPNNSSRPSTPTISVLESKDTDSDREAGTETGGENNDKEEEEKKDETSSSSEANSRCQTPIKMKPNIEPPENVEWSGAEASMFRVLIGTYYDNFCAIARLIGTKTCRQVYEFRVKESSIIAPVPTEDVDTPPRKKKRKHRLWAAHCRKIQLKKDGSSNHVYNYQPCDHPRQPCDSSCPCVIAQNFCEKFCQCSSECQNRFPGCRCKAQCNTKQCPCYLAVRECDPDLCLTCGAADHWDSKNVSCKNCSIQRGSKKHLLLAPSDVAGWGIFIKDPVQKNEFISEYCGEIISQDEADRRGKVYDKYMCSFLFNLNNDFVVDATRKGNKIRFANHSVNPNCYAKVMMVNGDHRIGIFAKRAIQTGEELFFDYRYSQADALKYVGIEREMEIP

What was measured:
Format in all cases: cell-based
[1] = target: Histone-lysine N-methyltransferase EZH2 (Mus musculus) (UniProt Q61188); experiment: Inhibition of EZH2 in mouse B16-F1 migrating cells assessed as fold change in H3K27me3-independent regulated Pou3f1-mRNA expression at 3 uM measured by ChIP-seq analysis relative to control cells
[2] = target: Histone-lysine N-methyltransferase EZH2 (Mus musculus) (UniProt Q61188); experiment: Inhibition of EZH2 in mouse B16-F1 migrating cells assessed as fold change in H3K27me3-independent regulated Bcl3-mRNA expression at 3 uM measured by ChIP-seq analysis relative to control cells
[3] = target: Histone-lysine N-methyltransferase EZH2 (Mus musculus) (UniProt Q61188); experiment: Inhibition of EZH2 in mouse B16-F1 migrating cells assessed as fold change in H3K27me3-buffered regulated Kcnj9-mRNA expression at 3 uM measured by ChIP-seq analysis relative to control cells
[4] = target: Histone-lysine N-methyltransferase EZH2 (Mus musculus) (UniProt Q61188); experiment: Inhibition of EZH2 in mouse B16-F1 migrating cells assessed as fold change in H3K27me3-buffered regulated Por-mRNA expression at 3 uM measured by ChIP-seq analysis relative to control cells
[5] = target: Histone-lysine N-methyltransferase EZH2 (Mus musculus) (UniProt Q61188); experiment: Inhibition of EZH2 in mouse B16-F1 migrating cells assessed as fold change in H3K27me3-buffered regulated G2e3-mRNA expression at 3 uM measured by ChIP-seq analysis relative to control cells
[6] = target: Histone-lysine N-methyltransferase EZH2 (Mus musculus) (UniProt Q61188); experiment: Inhibition of EZH2 in mouse B16-F1 migrating cells assessed as fold change in H3K27me3-buffered regulated Ice2-mRNA expression at 3 uM measured by ChIP-seq analysis relative to control cells
[7] = target: Histone-lysine N-methyltransferase EZH2 (Mus musculus) (UniProt Q61188); experiment: Inhibition of EZH2 in mouse B16-F1 migrating cells assessed as fold change in H3K27me3-buffered regulated BC037034-mRNA expression at 3 uM measured by ChIP-seq analysis relative to control cells
[8] = target: Histone-lysine N-methyltransferase EZH2 (Mus musculus) (UniProt Q61188); experiment: Inhibition of EZH2 in mouse B16-F1 migrating cells assessed as fold change in H3K27me3-buffered regulated Sntb2-mRNA expression at 3 uM measured by ChIP-seq analysis relative to control cells
[9] = target: Histone-lysine N-methyltransferase EZH2 (Mus musculus) (UniProt Q61188); experiment: Inhibition of EZH2 in mouse B16-F1 migrating cells assessed as fold change in H3K27me3-buffered regulated Tgfb2-mRNA expression at 3 uM measured by ChIP-seq analysis relative to control cells
[10] = target: Histone-lysine N-methyltransferase EZH2 (Mus musculus) (UniProt Q61188); experiment: Inhibition of EZH2 in mouse B16-F1 migrating cells assessed as fold change in H3K27me3-buffered regulated Col1a2-mRNA expression at 3 uM measured by ChIP-seq analysis relative to control cells
[11] = target: Histone-lysine N-methyltransferase EZH2 (Mus musculus) (UniProt Q61188); experiment: Inhibition of EZH2 in mouse B16-F1 migrating cells assessed as fold change in H3K27me3-buffered regulated Mex3b-mRNA expression at 3 uM measured by ChIP-seq analysis relative to control cells
[12] = target: T1, RNA polymerase II (Mus musculus) (UniProt P08775+Q8CFI7+P97760+A0A3Q4L2S8+Q80UW8+P61219+P62488+Q923G2+P60898+O08740+Q63871+P62876); experiment: Inhibition of RNA polymerase II in mouse B16-F1 migrating cells assessed as fold change in Dap-RNA stability at 0.1 mM measured by ChIP-seq analysis relative to control cells
[13] = target: T1, RNA polymerase II (Mus musculus); experiment: Inhibition of RNA polymerase II in mouse B16-F1 migrating cells assessed as fold change in Ndufb10-RNA stability at 0.1 mM measured by ChIP-seq analysis relative to control cells
[14] = target: T1, RNA polymerase II (Mus musculus); experiment: Inhibition of RNA polymerase II in mouse B16-F1 migrating cells assessed as fold change in Atp5d-RNA stability at 0.1 mM measured by ChIP-seq analysis relative to control cells
[15] = target: T1, RNA polymerase II (Mus musculus); experiment: Inhibition of RNA polymerase II in mouse B16-F1 migrating cells assessed as fold change in Prkcz-RNA stability at 0.1 mM measured by ChIP-seq analysis relative to control cells
[16] = target: T1, RNA polymerase II (Mus musculus); experiment: Inhibition of RNA polymerase II in mouse B16-F1 migrating cells assessed as fold change in Mrpl23-RNA stability at 0.1 mM measured by ChIP-seq analysis relative to control cells
[17] = target: T1, RNA polymerase II (Mus musculus); experiment: Inhibition of RNA polymerase II in mouse B16-F1 migrating cells assessed as fold change in Csnk1g2-RNA stability at 0.1 mM measured by ChIP-seq analysis relative to control cells
[18] = target: T1, RNA polymerase II (Mus musculus); experiment: Inhibition of RNA polymerase II in mouse B16-F1 migrating cells assessed as fold change in Plekha7-RNA stability at 0.1 mM measured by ChIP-seq analysis relative to control cells
[19] = target: T1, RNA polymerase II (Mus musculus); experiment: Inhibition of RNA polymerase II in mouse B16-F1 migrating cells assessed as fold change in Cd9-RNA stability at 0.1 mM measured by ChIP-seq analysis relative to control cells
[20] = target: T1, RNA polymerase II (Mus musculus); experiment: Inhibition of RNA polymerase II in mouse B16-F1 migrating cells assessed as fold change in Bzw1-RNA stability at 0.1 mM measured by ChIP-seq analysis relative to control cells
[21] = target: T1, RNA polymerase II (Mus musculus); experiment: Inhibition of RNA polymerase II in mouse B16-F1 migrating cells assessed as fold change in Rpgrip1l-RNA stability at 0.1 mM measured by ChIP-seq analysis relative to control cells
[22] = target: T1, RNA polymerase II (Mus musculus); experiment: Inhibition of RNA polymerase II in mouse B16-F1 migrating cells assessed as fold change in Atrx-RNA stability at 0.1 mM measured by ChIP-seq analysis relative to control cells
[23] = target: T1, RNA polymerase II (Mus musculus); experiment: Inhibition of RNA polymerase II in mouse B16-F1 migrating cells assessed as fold change in Dcun1d1-RNA stability at 0.1 mM measured by ChIP-seq analysis relative to control cells
[24] = target: T1, RNA polymerase II (Mus musculus); experiment: Inhibition of RNA polymerase II in mouse B16-F1 migrating cells assessed as fold change in Uxs1-RNA stability at 0.1 mM measured by ChIP-seq analysis relative to control cells
[25] = target: T1, RNA polymerase II (Mus musculus); experiment: Inhibition of RNA polymerase II in mouse B16-F1 migrating cells assessed as fold change in Il1rap-RNA stability at 0.1 mM measured by ChIP-seq analysis relative to control cells
[26] = target: T1, RNA polymerase II (Mus musculus); experiment: Inhibition of RNA polymerase II in mouse B16-F1 migrating cells assessed as fold change in Arhgap5-RNA stability at 0.1 mM measured by ChIP-seq analysis relative to control cells
[27] = target: T1, RNA polymerase II (Mus musculus); experiment: Inhibition of RNA polymerase II in mouse B16-F1 migrating cells assessed as fold change in Taf1d-RNA stability at 0.1 mM measured by ChIP-seq analysis relative to control cells
[28] = target: T1, RNA polymerase II (Mus musculus); experiment: Inhibition of RNA polymerase II in mouse B16-F1 migrating cells assessed as fold change in Fktn-RNA stability at 0.1 mM measured by ChIP-seq analysis relative to control cells
[29] = target: T1, RNA polymerase II (Mus musculus); experiment: Inhibition of RNA polymerase II in mouse B16-F1 migrating cells assessed as fold change in BC003331-RNA stability at 0.1 mM measured by ChIP-seq analysis relative to control cells
[30] = target: T1, RNA polymerase II (Mus musculus); experiment: Inhibition of RNA polymerase II in mouse B16-F1 migrating cells assessed as fold change in Dusp7-RNA stability at 0.1 mM measured by ChIP-seq analysis relative to control cells

CCCc1cc(C)[nH]c(=O)c1CNC(=O)c1cc(-c2ccnc(N3CCN(C)CC3)c2)cc2c1cnn2C(C)C
log2FC [1]: 1.91
log2FC [2]: 0.93
log2FC [3]: 1.07
log2FC [4]: 0.46
log2FC [5]: -0.42
log2FC [6]: -0.43
log2FC [7]: -0.52
log2FC [8]: -0.52
log2FC [9]: -0.64
log2FC [10]: -0.76
log2FC [11]: -0.98

OC[C@H]1O[C@@H](n2cnc3cc(Cl)c(Cl)cc32)[C@H](O)[C@@H]1O
log2FC [12]: 0.61
log2FC [13]: 0.56
log2FC [14]: 0.56
log2FC [15]: 0.55
log2FC [16]: 0.44
log2FC [17]: 0.39
log2FC [18]: -0.45
log2FC [19]: -0.46
log2FC [20]: -0.46
log2FC [21]: -0.46
log2FC [22]: -0.64
log2FC [23]: -0.66
log2FC [24]: -0.66
log2FC [25]: -0.66
log2FC [26]: -0.7
log2FC [27]: -0.72
log2FC [28]: -0.76
log2FC [29]: -0.84
log2FC [30]: -0.91
